Data from article PMC11461180, “Interaction with IP6K1 supports pyrophosphorylation of substrate proteins by the inositol pyrophosphate 5-InsP7” (Bioscience Reports, 2024).
No constants are given. Whether binding was seen depends on the method and setting. In cells and extracts the contact can be indirect. Some results given as binding are weak or reduced against the parent protein; the word gives no strength. For part of these data: Where a sequence is shown, tags or fusion partners need not be part of it. Values belong to the substance of their own block, whether it stands above or below them.

The chains behind the UniProt entries cited, without tags or fusion partners. Where a name states a change or a piece, a line headed by the entry shows the natural chain unless it says otherwise.
UniProt P68400: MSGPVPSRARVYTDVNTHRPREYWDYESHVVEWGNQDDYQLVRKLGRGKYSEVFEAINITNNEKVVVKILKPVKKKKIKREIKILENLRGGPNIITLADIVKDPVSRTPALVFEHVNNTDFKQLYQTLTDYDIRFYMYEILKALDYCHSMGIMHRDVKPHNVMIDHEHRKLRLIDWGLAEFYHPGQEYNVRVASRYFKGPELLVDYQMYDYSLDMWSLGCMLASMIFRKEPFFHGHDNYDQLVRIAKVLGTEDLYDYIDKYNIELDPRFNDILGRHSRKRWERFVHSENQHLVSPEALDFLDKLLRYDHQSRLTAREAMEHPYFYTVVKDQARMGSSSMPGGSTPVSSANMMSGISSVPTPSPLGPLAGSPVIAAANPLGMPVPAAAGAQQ
UniProt Q92551: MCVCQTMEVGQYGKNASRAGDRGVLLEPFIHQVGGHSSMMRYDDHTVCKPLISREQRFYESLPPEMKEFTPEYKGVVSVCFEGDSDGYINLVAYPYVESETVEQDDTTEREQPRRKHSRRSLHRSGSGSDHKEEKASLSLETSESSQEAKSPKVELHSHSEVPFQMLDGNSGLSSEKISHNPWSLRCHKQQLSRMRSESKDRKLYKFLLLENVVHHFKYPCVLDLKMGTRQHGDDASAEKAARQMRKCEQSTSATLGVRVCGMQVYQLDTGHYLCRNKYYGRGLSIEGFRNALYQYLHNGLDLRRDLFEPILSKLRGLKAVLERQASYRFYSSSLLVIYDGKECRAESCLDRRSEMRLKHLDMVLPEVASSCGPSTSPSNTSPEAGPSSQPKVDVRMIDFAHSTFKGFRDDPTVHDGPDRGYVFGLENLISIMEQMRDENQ
UniProt P01108: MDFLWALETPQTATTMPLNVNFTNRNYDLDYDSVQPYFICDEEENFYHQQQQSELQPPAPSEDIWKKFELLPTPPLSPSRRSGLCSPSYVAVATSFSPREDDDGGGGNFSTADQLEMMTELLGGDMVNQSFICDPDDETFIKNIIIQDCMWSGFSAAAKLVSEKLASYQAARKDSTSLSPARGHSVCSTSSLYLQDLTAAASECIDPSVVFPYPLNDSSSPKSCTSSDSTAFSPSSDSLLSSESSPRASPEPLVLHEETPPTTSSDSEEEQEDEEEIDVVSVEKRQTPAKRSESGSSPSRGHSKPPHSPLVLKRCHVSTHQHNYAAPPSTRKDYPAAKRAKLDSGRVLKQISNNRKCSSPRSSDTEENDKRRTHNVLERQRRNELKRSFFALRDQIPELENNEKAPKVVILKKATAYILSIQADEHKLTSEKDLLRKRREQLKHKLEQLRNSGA

What was measured:
[1] = biological target: GST-tagged recombinant CK2α (human) (UniProt P68400); assay: pull-down; GST-tagged IP6K1 or CK2α purified from E. coli and immobilized on glutathione-sepharose beads, incubated with lysates of transfected HEK293T cells in 50 mM HEPES-KOH pH 7.4, 100 mM NaCl, 5 mM MgCl2, 0.3% Triton X-100, 2 h at 4°C; immunoblotting; only the target purified
SFB-tagged AP3B1 (human) = biological target: T1, SFB-tagged AP3B1 (human) (UniProt O00203); assay: pull-down; SFB-tagged bait expressed in HEK293T (HEK293) cells, pulled down from the lysate with streptavidin-sepharose beads, 2 h at 4°C (50 mM HEPES pH 7.4, 100 mM NaCl, 1 mM EDTA, 0.5% Nonidet P-40); prey endogenous or co-expressed, detected by immunoblotting
T1 sequence: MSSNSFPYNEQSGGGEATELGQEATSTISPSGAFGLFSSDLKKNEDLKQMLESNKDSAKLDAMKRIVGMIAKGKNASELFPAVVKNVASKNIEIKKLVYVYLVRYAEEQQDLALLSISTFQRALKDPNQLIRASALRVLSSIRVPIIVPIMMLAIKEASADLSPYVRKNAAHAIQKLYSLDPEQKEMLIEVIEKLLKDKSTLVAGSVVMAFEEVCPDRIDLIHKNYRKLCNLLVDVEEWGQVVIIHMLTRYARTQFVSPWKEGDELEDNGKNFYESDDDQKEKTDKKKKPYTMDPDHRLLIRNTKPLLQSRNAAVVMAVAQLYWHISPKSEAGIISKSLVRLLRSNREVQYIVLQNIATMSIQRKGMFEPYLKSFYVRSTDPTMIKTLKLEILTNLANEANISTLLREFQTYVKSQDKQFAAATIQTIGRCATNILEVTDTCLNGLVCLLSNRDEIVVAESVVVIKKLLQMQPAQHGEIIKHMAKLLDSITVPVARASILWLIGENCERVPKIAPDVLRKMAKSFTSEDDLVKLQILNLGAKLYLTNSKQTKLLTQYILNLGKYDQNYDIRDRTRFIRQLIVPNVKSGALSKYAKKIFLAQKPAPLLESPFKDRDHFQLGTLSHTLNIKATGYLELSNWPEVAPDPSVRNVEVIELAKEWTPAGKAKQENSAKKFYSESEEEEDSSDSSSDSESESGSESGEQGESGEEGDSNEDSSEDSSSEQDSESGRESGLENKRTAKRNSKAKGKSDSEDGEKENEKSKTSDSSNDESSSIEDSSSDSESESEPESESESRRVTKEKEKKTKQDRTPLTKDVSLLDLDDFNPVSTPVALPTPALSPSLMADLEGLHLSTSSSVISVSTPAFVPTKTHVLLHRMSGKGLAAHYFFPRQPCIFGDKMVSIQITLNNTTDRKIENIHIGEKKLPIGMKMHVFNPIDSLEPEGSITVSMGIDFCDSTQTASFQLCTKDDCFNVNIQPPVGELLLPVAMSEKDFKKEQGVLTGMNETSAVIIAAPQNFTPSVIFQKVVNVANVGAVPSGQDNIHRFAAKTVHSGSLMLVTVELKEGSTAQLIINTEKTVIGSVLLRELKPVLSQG

[2] = biological target: SFB-tagged IP6K1 (full length) (human) (UniProt Q92551); assay: as above

- binding [1]: no binding
Substance: V5-tagged IP6K1 (from UniProt Q92551-1 1-441) (enzyme)

- binding (SFB-tagged AP3B1 (human)): binds
Substance: endogenous CK2 α-subunit (CK2α) (from UniProt P68400 1-391) (enzyme)

- binding [2]: binds
Substance: mouse MYC protein, C-terminally V5-tagged (from UniProt P01108 1-454)
